Assay results from patent US11154593B2, “CNP prodrugs with large carrier moieties” (ASCENDIS PHARMA GROWTH DISORDERS A/S, priority 2016, dated 2021).
At least one peptide structure holds a part that was inferred or is arguable (an end, a ring closure or a residue).

Test system: wild-type FVB male mice
Assay: Growth study in FVB mice after 5 weeks treatment with CNP-38, daily sc bolus or continuous sc infusion
Format: in vivo
Details: 50 nmol/kg/d, d 35
[1] = continuous subcutaneous infusion
[2] = daily subcutaneous bolus injection

SMILES: CC[C@H](C)[C@@H]1NC(=O)[C@H](CCCNC(=N)N)NC(=O)[C@H](CC(=O)O)NC(=O)[C@H](CC(C)C)NC(=O)[C@H](CCCCN)NC(=O)[C@H](CC(C)C)NC(=O)CNC(=O)[C@H](Cc2ccccc2)NC(=O)[C@@H](NC(=O)CNC(=O)[C@H](CCCCN)NC(=O)[C@H](CO)NC(=O)[C@H](CC(C)C)NC(=O)CNC(=O)[C@H](CCCCN)NC(=O)[C@H](CCCCN)NC(=O)[C@H](CC(N)=O)NC(=O)[C@H](C)NC(=O)CNC(=O)[C@H](CCCCN)NC(=O)[C@H](Cc2ccc(O)cc2)NC(=O)[C@H](CCCCN)NC(=O)[C@H](CCCNC(=N)N)NC(=O)[C@H](C)NC(=O)[C@H](CC(N)=O)NC(=O)[C@@H]2CCCN2C(=O)[C@H](Cc2c[nH]cn2)NC(=O)[C@H](CCC(=O)O)NC(=O)[C@H](CCC(N)=O)NC(=O)[C@@H](N)CC(C)C)CSSC[C@@H](C(=O)O)NC(=O)CNC(=O)[C@H](CC(C)C)NC(=O)CNC(=O)[C@H](CO)NC(=O)[C@H](CCSC)NC(=O)[C@H](CO)NC(=O)CNC1=O [CNP-38]
- right femur length compared to vehicle treated animals [1]: 107.5%
- right tibia length compared to vehicle treated animals [1]: 112.2%
- total body length compared to vehicle treated animals [1]: 121.7%
- right femur length compared to vehicle treated animals [2]: 105.6%
- right tibia length compared to vehicle treated animals [2]: 104.0%
- total body length compared to vehicle treated animals [2]: 110.2%
